# Taken from: PubChem BioAssay AID1224830 (NIAID, 2016)
# Assay: 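Host factors that control LPS-induced TNF expression in human macrophages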 (primary screen)
# System: human THP-1 monocytic leukaemia cells, TNF dual-luciferase reporter clone, PMA-differentiated to macrophage-like cells
# Knock-down reagent: siRNA pool against human genes, 50 nM
# Timing: LPS for 4 h, given about 3 days after siRNA transfection
# Treatment: bacterial LPS (TLR4 ligand), 10 ng/ml
# Detection: 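Ratio of firefly to renilla light, scaled to the plate median and expressed as a robust z-score per replicate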
# Direction: TNF reporter robust z-score: higher = stronger TNF reporter response to LPS
# Call rule: 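Each well counts as active if its z-score is over 2.8 or under -1.5; controls are left without a call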
# This is an unselected part of about 18,000 deposited reagents. About 2,900 of all reagents (16%) count as active. 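Calls are made per well; low scores hint the gene aids the LPS response, high scores that it dampens it.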 The numbers tell different reagents against one gene apart. Repeated entries: four replicate wells of each siRNA pool. Reagent sequences are not shown.
TNF reporter robust z-score,Outcome,Gene,reagent
-0.39,inactive,SPAG7,1
1.67,inactive,SPAG7,1
-0.17,inactive,SPAG7,1
0.95,inactive,SPAG7,1
1.25,inactive,TP53AIP1,1
1.29,inactive,TP53AIP1,1
1.27,inactive,TP53AIP1,1
-0.86,inactive,TP53AIP1,1
0.34,inactive,STRN4,1
1,inactive,STRN4,1
1.51,inactive,STRN4,1
2.36,inactive,STRN4,1
0.14,inactive,IFNA21,1
-0.07,inactive,IFNA21,1
-0.95,inactive,IFNA21,1
0.03,inactive,IFNA21,1
-0.1,inactive,GRPR,1
0.14,inactive,GRPR,1
-0.22,inactive,GRPR,1
0.04,inactive,GRPR,1
-0.17,inactive,TTC39B,1
1.36,inactive,TTC39B,1
-0.15,inactive,TTC39B,1
1.37,inactive,TTC39B,1
0.25,inactive,OR13C9,1
-0.81,inactive,OR13C9,1
-0.29,inactive,OR13C9,1
0.23,inactive,OR13C9,1
0.43,inactive,RWDD1,1
1.45,inactive,RWDD1,1
-1.51,active,RWDD1,1
2.28,inactive,RWDD1,1
-0.75,inactive,TBC1D3C,1
-0.56,inactive,TBC1D3C,1
-0.59,inactive,TBC1D3C,1
-0.49,inactive,TBC1D3C,1
-0.56,inactive,ZNF99,1
-0.34,inactive,ZNF99,1
-0.66,inactive,ZNF99,1
-0.2,inactive,ZNF99,1
1.39,inactive,DNHD1,1
1.92,inactive,DNHD1,1
1.8,inactive,DNHD1,1
1.23,inactive,DNHD1,1
1.02,inactive,DNHD1,2
-0.55,inactive,DNHD1,2
1.22,inactive,DNHD1,2
0.13,inactive,DNHD1,2
-0.09,inactive,VMA12,1
-0.69,inactive,VMA12,1
0.52,inactive,VMA12,1
0.6,inactive,VMA12,1
2.44,inactive,RPL28,1
1.21,inactive,RPL28,1
1.39,inactive,RPL28,1
1.93,inactive,RPL28,1
0.92,inactive,GLS,1
0.95,inactive,GLS,1
0.12,inactive,GLS,1
1.09,inactive,GLS,1
-1.18,inactive,CTNNBIP1,1
-1.36,inactive,CTNNBIP1,1
-1.12,inactive,CTNNBIP1,1
-0.79,inactive,CTNNBIP1,1
-0.96,inactive,CELSR1,1
-0.4,inactive,CELSR1,1
-0.16,inactive,CELSR1,1
-0.97,inactive,CELSR1,1
1.47,inactive,SLAIN1,1
1.12,inactive,SLAIN1,1
1.22,inactive,SLAIN1,1
2.15,inactive,SLAIN1,1
-0.99,inactive,MPDU1,1
-0.23,inactive,MPDU1,1
-0.87,inactive,MPDU1,1
-0.36,inactive,MPDU1,1
0.33,inactive,BTNL9,1
0.98,inactive,BTNL9,1
0.97,inactive,BTNL9,1
-0.5,inactive,ADGRE3,1
0.44,inactive,ADGRE3,1
0.13,inactive,ADGRE3,1
-1.29,inactive,ADGRE3,1
-1.31,inactive,FBXO11,1
3.37,active,FBXO11,1
-0.77,inactive,FBXO11,1
2.23,inactive,FBXO11,1
-0.53,inactive,ANKDD1A,1
-0.19,inactive,ANKDD1A,1
-0.62,inactive,ANKDD1A,1
-0.39,inactive,ANKDD1A,1
-0.87,inactive,PALLD,1
-1.35,inactive,PALLD,1
-1.08,inactive,PALLD,1
-1.44,inactive,PALLD,1
0.3,inactive,LGALS7B,1
-0.43,inactive,LGALS7B,1
-0.7,inactive,LGALS7B,1
-0.09,inactive,LGALS7B,1
-0.09,inactive,KLHL17,1
-0.25,inactive,KLHL17,1
-0.55,inactive,KLHL17,1
-1.04,inactive,KLHL17,1
-1.48,inactive,SEPTIN11,1
-1.66,active,SEPTIN11,1
-1.45,inactive,SEPTIN11,1
-1.83,active,SEPTIN11,1
-0.38,inactive,NOXRED1,1
0.28,inactive,NOXRED1,1
-0.5,inactive,NOXRED1,1
-0.06,inactive,NOXRED1,1

A stretch of the results above, as a working copy:
TNF reporter robust z-score,Outcome,Gene,reagent
-0.56,inactive,ZNF99,1
-0.34,inactive,ZNF99,1
-0.66,inactive,ZNF99,1
-0.2,inactive,ZNF99,1
1.39,inactive,DNHD1,1
1.92,inactive,DNHD1,1
1.8,inactive,DNHD1,1
1.23,inactive,DNHD1,1
1.02,inactive,DNHD1,2
-0.55,inactive,DNHD1,2
1.22,inactive,DNHD1,2
